# Test results as given in the supplement of paper PMC5355238.
# Structures can show the parent of a compound that is named as a salt. ± gives the standard deviation of the averaged measurements. The list shows a part of the results. Single values are uncertain, as repeats are few or missing.
# Test system: Reh
# Experiment: S-phase gammaH2AX median, Z-score vs plate median (drug alone); higher = more S-phase DNA damage
# Details: MK1775 concentration 0 nM; 10 µM; 4 h
row,SMILES,S-phase gammaH2AX median (Z-score)
1,Cc1ccc(S(=O)(=O)N[C@@H](CCCCN)C(=O)CCl)cc1 [Na-p-Tosyl-L-lysine chloromethyl ketone hydrochloride],0.147
2,O=C(Oc1ccc([N+](=O)[O-])cc1)N1CCC(C(O)(c2ccc3c(c2)OCO3)c2ccc3c(c2)OCO3)CC1,-0.0677
3,NC(=O)CN1CCCC1=O [Piracetam],0.0378
4,NCc1cc(O)no1 [Muscimol hydrobromide],0.0598
5,Oc1ccc2c3c1O[C@H]1c4oc5ccccc5c4C[C@@]4(O)[C@@H](C2)N(CC2CC2)CC[C@]314 [Naltriben methanesulfonate],0.0142
6,C=CCc1ccccc1OCC(O)CNC1(C)CCC(C(C)(C)NC(=O)CBr)CC1 (centres undefined) [Bromoacetyl alprenolol menthane],-0.272
7,Cc1c2ccncc2c(C)c2c1[nH]c1ccccc12 [Ellipticine],3.9
8,CC(C)NP(=O)(NC(C)C)OP(=O)(NC(C)C)NC(C)C [Tetraisopropyl pyrophosphoramide],-0.214
9,CC(=O)NBr [N-Bromoacetamide],-0.0932
10,CCCN1CCc2cccc3c2[C@H]1Cc1ccc(O)c(O)c1-3 [R(-)-Propylnorapomorphine hydrochloride],-0.0063
11,CCCN(CCC)C1CCc2cccc(O)c2C1 (centres undefined) [(?)-8-Hydroxy-DPAT hydrobromide],0.0283
12,CNc1ccc2oc(C[C@H]3O[C@@]4(CC[C@H]3C)O[C@H]([C@H](C)C(=O)c3ccc[nH]3)[C@H](C)C[C@H]4C)nc2c1C(=O)O [Calcimycin],0.107
13,COc1ccc2c(c[n+](C)c3c4cc5c(cc4ccc23)OCO5)c1OC [Chelerythrine chloride],4.14
14,c1ccc2c(c1)[I+]c1ccccc1-2 [Diphenyleneiodonium chloride],0.378
15,CCn1cc(C(=O)O)c(=O)c2cc3c(cc21)OCO3 [Oxolinic acid],-0.0473
16,C[N+]1(C)[C@@H]2C[C@@H](OC(=O)[C@H](CO)c3ccccc3)C[C@H]1[C@@H]1O[C@@H]12 [(-)-Scopolamine methyl bromide],-0.574
17,NCCc1ccc(O)cc1 [4-Hydroxyphenethylamine hydrochloride],0.28
18,"CN(C(=O)Cc1ccc(Cl)c(Cl)c1)C(CN1CCCC1)c1cccc(OCC(=O)O)c1 (centres undefined) [ICI 204,448 hydrochloride]",0.154
19,NC(=O)COc1c(F)cc(SCCNS(=O)(=O)c2ccccc2)cc1F,-0.128
20,CCCN1CCC[C@H](c2cccc(O)c2)C1 [R(+)-3PPP hydrochloride],-0.0071
21,C[C@H](Cc1ccc2c(c1)OC(C(=O)O)(C(=O)O)O2)NC[C@H](O)c1cccc(Cl)c1,0.113
22,CCC1(c2ccc(N)cc2)CCC(=O)NC1=O (centres undefined) [Aminoglutethimide (Cytadren)],0.11
23,CCC1(c2ccc(N)cc2)CCC(=O)NC1=O (centres undefined) [(?)-p-Aminoglutethimide],-0.00194
24,"C[N+]1(C)CCN(c2ccccc2)CC1 [1,1-Dimethyl-4-phenyl-piperazinium iodide]",-0.142
25,"C[C@@H](N)Cc1cnc[nH]1 [Histamine, R(-)-alpha-methyl-, dihydrochloride]",0

row,SMILES,S-phase gammaH2AX median (Z-score)
1,Clc1cc(I)cc(Cl)c1NC1=NCCN1 [p-Iodoclonidine hydrochloride],0.154
2,C[C@@H]1O[C@@H](O[C@H]2C[C@@H](O)[C@]3(CO)[C@H]4[C@H](O)C[C@]5(C)[C@@H](C6=CC(=O)OC6)CC[C@]5(O)[C@@H]4CC[C@]3(O)C2)[C@H](O)[C@H](O)[C@H]1O [Ouabain],0.0142
3,NCCCP(=O)(O)O [3-Aminopropylphosphonic acid],-0.0718
4,CNCCc1c[nH]c2ccc(O)cc12 [N-omega-Methyl-5-hydroxytryptamine oxalate salt],0.161
5,COc1ccc(Cc2nccc3cc(OC)c(OC)cc23)cc1OC [Papaverine hydrochloride],-0.026
6,NNC(=O)c1ccc(O)cc1 [4-Hydroxybenzhydrazide],0.107
7,COC(=O)C1=CCCN(C)C1 [Arecoline hydrobromide],-0.0175
8,C=C(C)[C@H]1Cc2c(ccc3c2O[C@@H]2COc4cc(OC)c(OC)cc4[C@@H]2C3=O)O1 [Rotenone],0
9,Fc1ccc(C(OCCN2CCN(CCCc3ccccc3)CC2)c2ccc(F)cc2)cc1,-0.265
10,N[C@@H](CCl)C(=O)O [beta-Chloro-L-alanine hydrochloride],0.0408
11,NNC(N)=O [Semicarbazide hydrochloride],0.0868
12,O=C[C@H](Cl)[C@@H](O)[C@H](O)[C@H](O)CO [2-Chloro-2-deoxy-D-glucose],0.0505
13,CCCN(CCC)C1CCc2ccc(O)cc2C1 (centres undefined) [(?)-7-Hydroxy-DPAT hydrobromide],-0.0504
14,CCCN(CCC)C1CCc2ccc(O)cc2C1 (stereo not drawn) [R-(+)-7-Hydroxy-DPAT hydrobromide],0.148
15,Oc1cc2c(cc1O)[C@H]1c3ccccc3CN[C@@H]1CC2 (racemic) [Dihydrexidine hydrochloride],0.224
16,N[C@H](CCCCCP(=O)(O)O)C(=O)O [D(-)-2-Amino-7-phosphonoheptanoic acid],-0.0874
17,CC(=O)Nc1ccc(OC[C@](C)(O)C(=O)Nc2ccc([N+](=O)[O-])c(C(F)(F)F)c2)cc1 [Andarine (GTX-007)],0.0313
18,CC(N)Cc1c[nH]c2ccc(O)cc12 (stereo not drawn) [alpha-Methyl-5-hydroxytryptamine maleate],0.237
19,CN(N=O)c1cc(O)ccc1O [Dephostatin],-0.0063
20,O=C1CCCN1CC#CCN1CCCC1 [Oxotremorine sesquifumarate salt],0.0142
21,C[N+](C)(C)CC#CCOC(=O)Nc1cccc(Cl)c1,-0.0311
22,CN1C[C@@H](NS(=O)(=O)N(C)C)C[C@@H]2c3cccc4c3c(cn4C)C[C@H]21 [Mesulergine hydrochloride],0.0686
23,Oc1ccc2c3c1O[C@H]1c4[nH]c5c(c4C[C@@]4(O)[C@@H](C2)N(CC2CC2)CC[C@]314)C[C@@]1(O)[C@H]2Cc3ccc(O)c4c3[C@@]1(CCN2CC1CC1)[C@H]5O4 [nor-Binaltorphimine dihydrochloride],-0.0568
24,CCCCc1ccc(C(=O)O)nc1 [Fusaric acid],-0.22
25,CCCN1C[C@H](CSC)C[C@@H]2c3cccc4[nH]cc(c34)C[C@H]21 [Pergolide methanesulfonate],0.333

row,SMILES,S-phase gammaH2AX median (Z-score)
1,N.N.[Cl][Pt][Cl] [Cisplatin],0.13 ± 0.11
2,COc1ccc2[nH]cc(CCN)c2c1 [O-Methylserotonin hydrochloride],-0.026
3,Cc1ncc(CNC(=O)N(CCCl)N=O)c(N)n1 [Nimustine hydrochloride],-0.0355
4,C#C[C@]1(O)CC[C@H]2[C@@H]3CCC4=Cc5nc6nc7ccccc7n6cc5C[C@]4(C)[C@H]3CC[C@@]21C,0.0601
5,Clc1cccc(N2CCNCC2)c1 [1-(3-Chlorophenyl)piperazine dihydrochloride],0.107
6,CC[C@@]1(O)C(=O)OCc2c1cc1n(c2=O)Cc2cc3ccccc3nc2-1 [(S)-(+)-Camptothecin],10.9
7,"COc1ccc2c3c1O[C@H]1C(=O)CC[C@@]4(O)C(C2)N(CC2CC2)CCC314 (single isomer, unassigned; (-)) [(-)-3-Methoxynaltrexone hydrochloride]",-0.0993
8,"Cc1c(C(=O)c2cccc3ccccc23)c2cccc3c2n1[C@H](CN1CCOCC1)CO3 [( R)-(+)-WIN 55,212-2 mesylate]",-0.821
9,CCN(CC)C(=O)NC1C=C2c3cccc4[nH]cc(c34)CC2N(C)C1 (stereo not drawn) [S-(-)-Lisuride],0.0237
10,CC(CCc1ccccc1)NC(C)C(O)c1ccc(O)cc1 (centres undefined) [Nylidrin hydrochloride],0.0591
11,"CC1C2Cc3ccc(O)cc3C1(C)CCN2CC1CC1 (single isomer, unassigned; (+)) [(+)-Cyclazocine]",-0.0408
12,CN1C[C@H](C(=O)N[C@]2(C)O[C@@]3(O)[C@@H]4CCCN4C(=O)[C@H](Cc4ccccc4)N3C2=O)C[C@@H]2c3cccc4[nH]cc(c34)C[C@H]21 [Dihydroergotamine methanesulfonate],-0.164
13,O=C1NCN(c2ccccc2)C12CCN(CC1COc3ccccc3O1)CC2 (centres undefined) [Spiroxatrine],-0.254
14,C[N+]1(C)[C@@H]2CC[C@H]1C[C@@H](OC(=O)C(CO)c1ccccc1)C2 (some centres undefined) [Atropine methyl bromide],0.0175
15,C[N+]1(C)[C@@H]2CC[C@H]1C[C@@H](OC(=O)C(CO)c1ccccc1)C2 (some centres undefined) [Atropine methyl nitrate],-0.00194
16,c1ccc2nc(N3CCNCC3)ccc2c1 [Quipazine dimaleate],0.0639
17,C[N+](C)(C)CCCCCCCCCC[N+](C)(C)C [Decamethonium dibromide],-0.142
18,CN1CCC(c2c[nH]c3ccc(O)cc23)CC1,-0.0252
19,CC(C)[C@@]1(NC(=O)[C@@H]2C[C@@H]3c4cccc5[nH]cc(c45)C[C@H]3N(C)C2)O[C@@]2(O)[C@@H]3CCCN3C(=O)[C@H](Cc3ccccc3)N2C1=O [Dihydroergocristine methanesulfonate],-0.132
20,CC1Cc2cc3c(cc2C(c2ccc(N)cc2)=NN1)OCO3 (centres undefined),0.296
21,CC(N)Cc1c[nH]c2ccc(OCc3cccs3)cc12 (centres undefined),-0.0971
22,NC(=O)CN1CC(O)CC1=O (centres undefined) [Oxiracetam],0.0639
23,COc1ccc(CNC(=O)/C=C/c2ccc3[nH]cc(CCN(C)C)c3c2)cc1,0.0155
24,C[N+](C)(C)CC#CCN1CCCC1=O [Oxotremorine methiodide],-0.0355

# Fetched one by one from the list above:
row,SMILES,S-phase gammaH2AX median (Z-score)
17,C[N+](C)(C)CCCCCCCCCC[N+](C)(C)C [Decamethonium dibromide],-0.142
19,CC(C)[C@@]1(NC(=O)[C@@H]2C[C@@H]3c4cccc5[nH]cc(c45)C[C@H]3N(C)C2)O[C@@]2(O)[C@@H]3CCCN3C(=O)[C@H](Cc3ccccc3)N2C1=O [Dihydroergocristine methanesulfonate],-0.132
